Data from patent US20210371522A1.
Results are given in words; binding and its absence hold for the method and conditions named. Some results given as binding are weak or reduced against the parent protein; the word gives no strength.

Amino acid sequences for entries named in this document (tags omitted). Residues count along the entry.
UniProt P07996, residues 19-1170: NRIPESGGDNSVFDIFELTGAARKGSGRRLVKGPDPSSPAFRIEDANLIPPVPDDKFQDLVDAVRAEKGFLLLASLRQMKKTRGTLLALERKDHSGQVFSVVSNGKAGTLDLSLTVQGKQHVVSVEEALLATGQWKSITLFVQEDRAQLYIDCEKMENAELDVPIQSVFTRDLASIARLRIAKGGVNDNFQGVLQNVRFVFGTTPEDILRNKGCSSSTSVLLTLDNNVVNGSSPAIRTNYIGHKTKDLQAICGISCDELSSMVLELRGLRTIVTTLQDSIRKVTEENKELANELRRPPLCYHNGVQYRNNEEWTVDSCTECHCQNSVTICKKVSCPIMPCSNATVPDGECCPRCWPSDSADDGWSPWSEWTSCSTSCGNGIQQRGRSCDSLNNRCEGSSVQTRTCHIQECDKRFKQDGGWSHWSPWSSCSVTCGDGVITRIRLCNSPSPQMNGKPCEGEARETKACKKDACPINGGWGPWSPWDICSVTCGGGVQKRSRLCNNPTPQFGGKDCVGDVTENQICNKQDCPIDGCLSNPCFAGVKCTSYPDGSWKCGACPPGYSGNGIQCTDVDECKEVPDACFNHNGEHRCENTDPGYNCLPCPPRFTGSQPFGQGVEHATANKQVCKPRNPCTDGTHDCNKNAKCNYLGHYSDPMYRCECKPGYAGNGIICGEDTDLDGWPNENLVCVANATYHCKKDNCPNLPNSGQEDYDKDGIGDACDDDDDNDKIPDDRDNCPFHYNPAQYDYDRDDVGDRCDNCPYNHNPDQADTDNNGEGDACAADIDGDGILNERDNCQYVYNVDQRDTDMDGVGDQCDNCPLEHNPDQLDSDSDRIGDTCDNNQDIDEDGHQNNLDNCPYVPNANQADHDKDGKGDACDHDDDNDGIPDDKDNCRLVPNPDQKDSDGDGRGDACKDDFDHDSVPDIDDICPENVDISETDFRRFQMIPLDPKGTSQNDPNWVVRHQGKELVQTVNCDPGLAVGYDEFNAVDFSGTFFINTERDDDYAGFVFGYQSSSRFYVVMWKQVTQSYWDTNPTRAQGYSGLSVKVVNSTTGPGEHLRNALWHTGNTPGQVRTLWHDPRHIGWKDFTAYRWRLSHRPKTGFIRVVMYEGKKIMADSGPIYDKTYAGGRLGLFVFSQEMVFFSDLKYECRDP
UniProt Q08722, residues 19-141: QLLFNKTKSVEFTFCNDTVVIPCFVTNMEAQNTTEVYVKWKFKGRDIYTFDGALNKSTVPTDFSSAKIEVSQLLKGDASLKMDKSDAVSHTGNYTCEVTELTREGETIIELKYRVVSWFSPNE

Molecular target: recombinant thrombospondin-1 (TSP-1) (UniProt P07996)
Test: SPR (Biacore)

- binding: binds
Substance: recombinant CD47 extracellular domain (ECD) (from UniProt Q08722 19-141) (receptor)
